The text below walks through data of patent publication US20240343704A1, “HALO-SUBSTITUTED AMINO PYRIDINE COMPOUNDS AS INHIBITORS OF THE HAEMATOPOIETIC PROGENITOR KINASE 1 (HPK1)” (priority 2021, published 2024).

By UniProt entry, the sequences of proteins in these tests, tags left out. Residues count along the entry.
UniProt Q92918, 1-346 limits assumed: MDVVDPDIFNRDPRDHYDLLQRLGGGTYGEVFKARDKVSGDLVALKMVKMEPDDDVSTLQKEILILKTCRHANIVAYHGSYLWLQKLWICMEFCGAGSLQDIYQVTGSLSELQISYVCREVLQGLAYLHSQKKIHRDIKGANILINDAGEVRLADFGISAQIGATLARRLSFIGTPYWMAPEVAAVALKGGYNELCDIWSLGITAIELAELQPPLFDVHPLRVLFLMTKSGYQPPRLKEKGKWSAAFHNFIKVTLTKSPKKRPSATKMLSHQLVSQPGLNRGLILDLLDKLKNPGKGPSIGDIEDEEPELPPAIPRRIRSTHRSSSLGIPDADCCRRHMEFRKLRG
UniProt P06239, whole entry: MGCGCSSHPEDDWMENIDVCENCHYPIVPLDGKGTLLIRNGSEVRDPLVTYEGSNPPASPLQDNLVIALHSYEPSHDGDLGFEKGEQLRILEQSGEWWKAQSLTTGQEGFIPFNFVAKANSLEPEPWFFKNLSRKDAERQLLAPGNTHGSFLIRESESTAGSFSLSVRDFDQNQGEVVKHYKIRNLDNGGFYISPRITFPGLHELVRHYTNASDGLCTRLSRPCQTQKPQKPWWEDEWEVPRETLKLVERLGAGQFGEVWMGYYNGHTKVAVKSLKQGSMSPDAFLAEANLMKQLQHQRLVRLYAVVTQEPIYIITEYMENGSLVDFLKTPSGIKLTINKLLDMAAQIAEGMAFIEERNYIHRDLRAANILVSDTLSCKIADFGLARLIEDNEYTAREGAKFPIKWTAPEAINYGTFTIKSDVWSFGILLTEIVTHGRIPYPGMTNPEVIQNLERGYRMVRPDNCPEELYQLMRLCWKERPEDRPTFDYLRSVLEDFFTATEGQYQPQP

Structures were worked out from names or drawings and are uncertain.

The target in assay [1] is Recombinant (1-346) HPK1 (h) (Homo sapiens, UniProt Q92918). Nature of the assay: HPK1 Human STE Kinase Enzymatic Radiometric Assay. The conditions noted are these: read-out: HPK1 IC50 nM Range*.
In the next assay the target is Lck (h) (Homo sapiens, UniProt P06239). Nature of the assay: Lck Human  Kinase Enzymatic Radiometric Assay. The class given is biochemical. The conditions noted are these: read-out: Lck IC50 nM Range*. Here is the method:
Lck (h) is incubated with 50 mM Tris pH 7.5, 0.1 mM EGTA, 0.1 mM Na3VO4, 250 uM KVEKIGEGTYGVVYK (Cdc2 peptide), 10 mM MgAcetate and [gamma-33P]-ATP (specific activity and concentration as required). The reaction is initiated by the addition of the Mg/ATP mix. After incubation for 40 minutes at RT, the reaction is stopped by the addition of phosphoric acid to a concentration of 0.5%. 10 uL of the reaction is then spotted onto a P30 filtermat and washed four times for 4 minutes in 0.425% phosphoric acid and once in methanol prior to drying and scintillation counting. For more details on the kinase assay procedures see: Gao, Y. et. al.; Biochem J., 451 (2): 313-328, 2013.

The IC50 is the point on the concentration scale where inhibition reaches its midpoint. Consider `Nc1nc(F)c(-c2ccc(N3CCN(CCC4CC4)CC3)cc2)cc1-c1cc(F)c2c(=O)[nH]ccc2c1`, for which the IC50 in assay [1] is 0.1 to 10 nM; on Lck (h), more than 1000 nM.

Turning to `C[C@@H](C1CC1)N1CCN(c2ccc(-c3cc(-c4cc(F)c5c(c4)CCNC5=O)c(N)nc3F)cc2)CC1`, the IC50 in assay [1] lay within 0.1 to 10 nM; on Lck (h), 101 to 1000 nM.

On to `Nc1nc(F)c(-c2ccc(N3CCN(CC4CC4)CC3)c(F)c2)cc1-c1cc(F)c2c(c1)CCNC2=O`, for which the IC50 in assay [1] is 0.1 to 10 nM; on Lck (h), more than 1000 nM.

Turning to `Nc1nc(F)c(-c2ccc(N3CCN(CCC4CC4)CC3)cc2)cc1-c1cc2cc[nH]c(=O)c2cc1F`, the IC50 in assay [1] is 0.1 to 10 nM; on Lck (h) it was more than 1000 nM.
